The assay deals with chaperonin-containing TCP1 subunit 5 (human (endogenous in HsRPE cells)) (UniProt P48643). Description: co-IP; HsRPE cell lysate incubated with 5 ug anti-CCT5 (or rabbit IgG control) at 4°C overnight, Protein A/G magnetic beads, Western blot of the precipitate.

Sequences of proteins named here, by UniProt entry; tags and fusion partners are left off.
UniProt P48643: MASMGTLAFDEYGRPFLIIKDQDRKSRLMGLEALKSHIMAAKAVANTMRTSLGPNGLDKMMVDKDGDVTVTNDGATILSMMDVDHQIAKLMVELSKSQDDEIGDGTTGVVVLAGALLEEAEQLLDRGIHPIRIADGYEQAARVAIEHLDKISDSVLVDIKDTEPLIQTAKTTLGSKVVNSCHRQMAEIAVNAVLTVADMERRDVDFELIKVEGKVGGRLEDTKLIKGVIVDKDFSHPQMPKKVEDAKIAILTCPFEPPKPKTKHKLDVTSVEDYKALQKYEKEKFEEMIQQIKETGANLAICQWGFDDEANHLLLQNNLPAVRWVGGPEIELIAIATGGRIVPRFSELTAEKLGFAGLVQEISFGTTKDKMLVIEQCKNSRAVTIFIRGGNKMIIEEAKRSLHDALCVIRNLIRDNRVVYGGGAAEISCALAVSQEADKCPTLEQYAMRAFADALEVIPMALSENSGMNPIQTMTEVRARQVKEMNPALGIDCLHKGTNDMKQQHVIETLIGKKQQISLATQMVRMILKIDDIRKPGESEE

The values that follow come from PMC9043132.

No constants are given. Whether binding was seen depends on the method and setting. Binding seen in cells or lysates may run through a third protein.

B1: Mer receptor tyrosine kinase (receptor, UniProt Q12866 21-999)
chain: AITEAREEAKPYPLFPGPFPGSLQTDHTPLLSLPHASGYQPALMFSPTQPGRPHTGNVAIPQVTSVESKPLPPLAFKHTVGHIILSEHKGVKFNCSISVPNIYQDTTISWWKDGKELLGAHHAITQFYPDDEVTAIIASFSITSVQRSDNGSYICKMKINNEEIVSDPIYIEVQGLPHFTKQPESMNVTRNTAFNLTCQAVGPPEPVNIFWVQNSSRVNEQPEKSPSVLTVPGLTEMAVFSCEAHNDKGLTVSKGVQINIKAIPSPPTEVSIRNSTAHSILISWVPGFDGYSPFRNCSIQVKEADPLSNGSVMIFNTSALPHLYQIKQLQALANYSIGVSCMNEIGWSAVSPWILASTTEGAPSVAPLNVTVFLNESSDNVDIRWMKPPTKQQDGELVGYRISHVWQSAGISKELLEEVGQNGSRARISVQVHNATCTVRIAAVTRGGVGPFSDPVKIFIPAHGWVDYAPSSTPAPGNADPVLIIFGCFCGFILIGLILYISLAIRKRVQETKFGNAFTEEDSELVVNYIAKKSFCRRAIELTLHSLGVSEELQNKLEDVVIDRNLLILGKILGEGEFGSVMEGNLKQEDGTSLKVAVKTMKLDNSSQREIEEFLSEAACMKDFSHPNVIRLLGVCIEMSSQGIPKPMVILPFMKYGDLHTYLLYSRLETGPKHIPLQTLLKFMVDIALGMEYLSNRNFLHRDLAARNCMLRDDMTVCVADFGLSKKIYSGDYYRQGRIAKMPVKWIAIESLADRVYTSKSDVWAFGVTMWEIATRGMTPYPGVQNHEMYDYLLHGHRLKQPEDCLDELYEIMYSCWRTDPLDRPTFSVLRLQLEKLLESLPDVRNQADVIYVNTQLLESSEGLAQGSTLAPLDLNIDPDSIIASCTPRAAISVVTAEVHDSKPHEGRYILNGGSEEWEDLTSAPSAAVTAEKNSVLPGERLVRNGVSWSHSSMLPLGSSLPDELLFADDSSEGSEVLM
Consider B1, for which the binding entry is given as “no binding”.
